PubChem BioAssay AID1259405 | NCATS, 2018

- Purpose: 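Mouse-designed siRNAs used to find CHO productivity engineering targets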 (primary screen)
- Cells: Chinese hamster CHO-K1 ovary cells with stable secreted eGFP expression
- Knock-down reagent: single siRNA against mouse genes, 0.8 pmol siRNA per well (2 µl of 400 nM stock)
- Timing: 3 days
- Measured: 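Percent of the per-plate non-targeting control median for intracellular GFP per well by laser scanning cytometry and for cell viability by ATP luminescence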
- Direction: GFP, % of control: higher = more GFP per well, higher productivity; viability (ATP), % of control: higher = more viable cells (more ATP)
- Active means: 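Called active when intracellular GFP, relative to negative control, is at or above 120%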
Here is one part, drawn at random, of about 50,000 reagents. In the full data, about 4,000 (8%) were called active. 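Mouse siRNA library applied to hamster cells; one well for each siRNA.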 Entries without a mark were called inactive. Reagents against one gene are numbered here. No sequences are given here.

target gene,reagent no.,"GFP, % of control","viability (ATP), % of control"
Cetn2 (centrin 2),1,51.7,70.9
Cetn2 (centrin 2),2,78.4,82.8
Pramel3c (PRAME like 3C),1,85.9,75.2
Pramel3c (PRAME like 3C),2,57.4,44.4
Pramel3c (PRAME like 3C),3,62.8,99.9
Cep70 (centrosomal protein 70),1,63.3,58
Cep70 (centrosomal protein 70),2,63.5,82.1
Cep70 (centrosomal protein 70),3,59.4,66
Rarres2 (retinoic acid receptor responder (tazarotene induced) 2),1,63,63.6
Rarres2 (retinoic acid receptor responder (tazarotene induced) 2),2,130 (active),91.9
Gm773 (predicted gene 773),1,44.9,45.4
Gm773 (predicted gene 773),2,90.9,89.2
Gm773 (predicted gene 773),3,63.6,83.1
Or8g21 (olfactory receptor family 8 subfamily G member 21),1,61.1,68.3
Or8g21 (olfactory receptor family 8 subfamily G member 21),2,88.2,73.6
Or8g21 (olfactory receptor family 8 subfamily G member 21),3,72.7,71.8
Osgep (O-sialoglycoprotein endopeptidase),1,69.3,51.6
Osgep (O-sialoglycoprotein endopeptidase),2,39.5,50.7
Osgep (O-sialoglycoprotein endopeptidase),3,30.6,57.3
Snph (syntaphilin),1,63.3,75.6
Snph (syntaphilin),2,49.4,51.2
Snph (syntaphilin),3,44.5,45.2
A930024E05Rik (RIKEN cDNA A930024E05 gene),1,53,48.2
A930024E05Rik (RIKEN cDNA A930024E05 gene),2,170 (active),84.6
A930024E05Rik (RIKEN cDNA A930024E05 gene),3,70.7,75
"Tas2r121 (taste receptor, type 2, member 121)",1,53.3,83.8
"Tas2r121 (taste receptor, type 2, member 121)",2,57.6,98
"Tas2r121 (taste receptor, type 2, member 121)",3,86.1,84.9
"Ap5m1 (adaptor-related protein complex 5, mu 1 subunit)",1,93,97.5
"Ap5m1 (adaptor-related protein complex 5, mu 1 subunit)",2,138 (active),95.9
"Ap5m1 (adaptor-related protein complex 5, mu 1 subunit)",3,67.2,76.4
Rnf146 (ring finger protein 146),1,164 (active),95.1
Rnf146 (ring finger protein 146),2,53.5,53.5
Rnf146 (ring finger protein 146),3,79.7,83.9
Bag2 (BCL2-associated athanogene 2),1,61.9,83.8
Bag2 (BCL2-associated athanogene 2),2,104,89.5
Bag2 (BCL2-associated athanogene 2),3,71.9,133
Blvrb (biliverdin reductase B),1,61.9,75.5
Blvrb (biliverdin reductase B),2,96.6,82
Dnaja2 (DnaJ heat shock protein family (Hsp40) member A2),1,130 (active),92.1
Dnaja2 (DnaJ heat shock protein family (Hsp40) member A2),2,85.7,78.7
Dnaja2 (DnaJ heat shock protein family (Hsp40) member A2),3,59.2,107
"Gtf3c5 (general transcription factor IIIC, polypeptide 5)",1,60.5,78
"Gtf3c5 (general transcription factor IIIC, polypeptide 5)",2,76.8,88
"Gtf3c5 (general transcription factor IIIC, polypeptide 5)",3,81.2,40.4
Lrrc4b (leucine rich repeat containing 4B),1,105,151
Lrrc4b (leucine rich repeat containing 4B),2,62.5,51.4
Lrrc4b (leucine rich repeat containing 4B),3,56.2,71.2
"Ppp1r35 (protein phosphatase 1, regulatory subunit 35)",1,29.1,25.1
"Ppp1r35 (protein phosphatase 1, regulatory subunit 35)",2,54.5,54.2
"Ppp1r35 (protein phosphatase 1, regulatory subunit 35)",3,89.6,121
Trav13-5 (T cell receptor alpha variable 13-5),1,83.3,97.6
Trav13-5 (T cell receptor alpha variable 13-5),2,66.8,80.4
Trav13-5 (T cell receptor alpha variable 13-5),3,91,79.8
"Met (met proto-oncogene, receptor tyrosine kinase)",1,95.9,112
Scamp2,1,84.9,92.8
Scamp2,2,68.6,83
Scamp2,3,56.8,58.4
